Assay results taken from the supplement of paper PMC12819154, “High-throughput peptide-centric local stability assay extends protein–ligand identification to membrane proteins, tissues and bacteria” (Nature Structural & Molecular Biology, 2025).
This is one part of the list. Most entries show no effect beyond the scatter of the controls.

Amino acid sequences for entries named in this document (tags omitted). A change or cut given only in a name is not applied to a line headed by its entry.
UniProt Q3TV70: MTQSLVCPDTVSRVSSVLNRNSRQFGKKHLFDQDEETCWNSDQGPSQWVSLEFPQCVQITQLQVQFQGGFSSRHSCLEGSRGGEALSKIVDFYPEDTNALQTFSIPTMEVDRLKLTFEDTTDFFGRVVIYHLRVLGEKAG
UniProt Q3TXX3: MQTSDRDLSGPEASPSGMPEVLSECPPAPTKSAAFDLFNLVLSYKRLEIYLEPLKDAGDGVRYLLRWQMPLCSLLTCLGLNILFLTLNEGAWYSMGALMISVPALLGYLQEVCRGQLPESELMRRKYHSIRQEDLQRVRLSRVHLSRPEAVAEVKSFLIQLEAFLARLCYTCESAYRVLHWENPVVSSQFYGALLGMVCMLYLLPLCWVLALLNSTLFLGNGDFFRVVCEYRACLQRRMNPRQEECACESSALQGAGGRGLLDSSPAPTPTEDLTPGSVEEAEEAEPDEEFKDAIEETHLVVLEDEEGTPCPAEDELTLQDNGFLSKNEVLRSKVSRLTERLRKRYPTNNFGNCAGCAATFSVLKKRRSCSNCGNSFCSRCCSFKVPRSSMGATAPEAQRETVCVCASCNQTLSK
UniProt Q08091: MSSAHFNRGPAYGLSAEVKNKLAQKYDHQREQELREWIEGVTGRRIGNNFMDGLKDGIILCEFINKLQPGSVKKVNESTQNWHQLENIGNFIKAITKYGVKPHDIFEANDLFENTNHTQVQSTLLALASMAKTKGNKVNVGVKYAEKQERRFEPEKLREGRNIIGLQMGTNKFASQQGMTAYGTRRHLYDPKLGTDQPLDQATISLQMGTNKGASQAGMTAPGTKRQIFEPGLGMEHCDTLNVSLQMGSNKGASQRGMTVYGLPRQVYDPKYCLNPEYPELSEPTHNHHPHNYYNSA
UniProt Q07231: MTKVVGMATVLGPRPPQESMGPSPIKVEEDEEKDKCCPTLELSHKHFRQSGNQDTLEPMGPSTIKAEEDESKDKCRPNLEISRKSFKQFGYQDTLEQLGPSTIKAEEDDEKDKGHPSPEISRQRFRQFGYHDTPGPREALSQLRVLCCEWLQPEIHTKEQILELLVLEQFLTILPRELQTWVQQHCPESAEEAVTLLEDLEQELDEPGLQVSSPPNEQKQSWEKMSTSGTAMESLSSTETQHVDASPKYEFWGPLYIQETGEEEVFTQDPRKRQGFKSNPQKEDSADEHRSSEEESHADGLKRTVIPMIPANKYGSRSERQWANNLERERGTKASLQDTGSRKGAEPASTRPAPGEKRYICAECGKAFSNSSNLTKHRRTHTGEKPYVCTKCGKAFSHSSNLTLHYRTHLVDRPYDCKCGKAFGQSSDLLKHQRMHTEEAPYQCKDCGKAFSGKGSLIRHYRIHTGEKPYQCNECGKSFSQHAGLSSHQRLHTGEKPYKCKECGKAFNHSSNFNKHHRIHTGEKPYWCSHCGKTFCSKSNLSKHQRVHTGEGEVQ
UniProt Q0KL01: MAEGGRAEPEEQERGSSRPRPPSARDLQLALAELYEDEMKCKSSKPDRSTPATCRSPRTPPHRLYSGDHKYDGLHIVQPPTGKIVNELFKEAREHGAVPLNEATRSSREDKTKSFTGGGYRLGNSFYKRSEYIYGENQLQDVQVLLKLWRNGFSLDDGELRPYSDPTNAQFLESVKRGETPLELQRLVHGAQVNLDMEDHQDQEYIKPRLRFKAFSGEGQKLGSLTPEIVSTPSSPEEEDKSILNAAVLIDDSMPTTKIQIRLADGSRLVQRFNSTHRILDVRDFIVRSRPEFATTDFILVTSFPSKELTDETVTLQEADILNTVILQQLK
UniProt Q3TWL2: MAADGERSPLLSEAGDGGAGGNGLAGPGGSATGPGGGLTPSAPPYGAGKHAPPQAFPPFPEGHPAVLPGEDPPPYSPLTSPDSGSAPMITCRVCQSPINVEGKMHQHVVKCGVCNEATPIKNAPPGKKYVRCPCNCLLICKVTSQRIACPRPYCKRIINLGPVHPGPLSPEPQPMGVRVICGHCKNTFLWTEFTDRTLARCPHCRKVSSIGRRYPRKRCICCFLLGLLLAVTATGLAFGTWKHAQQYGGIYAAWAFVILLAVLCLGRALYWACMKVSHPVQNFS
UniProt Q04207, whole entry: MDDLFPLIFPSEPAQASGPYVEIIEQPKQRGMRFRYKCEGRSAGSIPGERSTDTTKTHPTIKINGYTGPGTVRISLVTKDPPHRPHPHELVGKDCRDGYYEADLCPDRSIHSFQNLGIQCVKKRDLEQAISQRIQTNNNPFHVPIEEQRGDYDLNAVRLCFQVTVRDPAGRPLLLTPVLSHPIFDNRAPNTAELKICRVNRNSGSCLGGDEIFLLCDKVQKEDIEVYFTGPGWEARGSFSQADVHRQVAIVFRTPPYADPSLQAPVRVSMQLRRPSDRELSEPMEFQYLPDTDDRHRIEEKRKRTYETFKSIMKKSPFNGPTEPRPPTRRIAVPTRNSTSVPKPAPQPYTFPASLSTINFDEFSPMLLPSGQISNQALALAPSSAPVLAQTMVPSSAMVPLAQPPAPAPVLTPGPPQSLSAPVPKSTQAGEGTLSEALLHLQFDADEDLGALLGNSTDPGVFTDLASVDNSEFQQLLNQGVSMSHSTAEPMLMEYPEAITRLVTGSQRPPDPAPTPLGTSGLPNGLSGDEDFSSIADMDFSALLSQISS
UniProt Q3THJ3: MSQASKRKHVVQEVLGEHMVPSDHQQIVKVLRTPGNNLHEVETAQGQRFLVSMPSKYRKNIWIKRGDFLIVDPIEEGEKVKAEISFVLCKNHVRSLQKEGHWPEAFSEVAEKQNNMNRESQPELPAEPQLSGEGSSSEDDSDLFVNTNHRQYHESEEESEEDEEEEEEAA
UniProt Q3U155: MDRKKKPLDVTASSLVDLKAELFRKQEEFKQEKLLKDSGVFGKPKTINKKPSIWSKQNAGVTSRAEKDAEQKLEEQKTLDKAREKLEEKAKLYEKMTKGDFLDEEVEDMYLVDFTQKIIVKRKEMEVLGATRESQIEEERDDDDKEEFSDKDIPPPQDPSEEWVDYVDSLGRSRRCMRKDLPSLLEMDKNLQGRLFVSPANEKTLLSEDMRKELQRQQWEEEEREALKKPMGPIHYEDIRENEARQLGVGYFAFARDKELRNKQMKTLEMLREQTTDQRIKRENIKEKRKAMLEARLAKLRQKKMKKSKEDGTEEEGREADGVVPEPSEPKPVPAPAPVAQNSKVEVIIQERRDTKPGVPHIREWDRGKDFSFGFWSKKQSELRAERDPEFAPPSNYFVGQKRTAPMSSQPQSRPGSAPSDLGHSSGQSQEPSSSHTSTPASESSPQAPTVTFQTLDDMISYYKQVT
UniProt Q3SXD3: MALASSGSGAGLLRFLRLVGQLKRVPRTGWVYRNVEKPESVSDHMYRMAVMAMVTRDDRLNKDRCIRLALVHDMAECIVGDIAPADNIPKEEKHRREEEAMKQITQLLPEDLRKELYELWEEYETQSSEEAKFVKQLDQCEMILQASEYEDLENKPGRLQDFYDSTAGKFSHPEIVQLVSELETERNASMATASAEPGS
UniProt Q3TBL6: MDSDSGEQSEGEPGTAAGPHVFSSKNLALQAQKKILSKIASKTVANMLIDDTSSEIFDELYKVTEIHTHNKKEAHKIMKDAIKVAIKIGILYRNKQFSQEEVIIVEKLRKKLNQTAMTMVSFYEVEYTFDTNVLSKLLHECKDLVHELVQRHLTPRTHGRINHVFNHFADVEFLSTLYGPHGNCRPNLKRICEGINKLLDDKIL
UniProt Q09014: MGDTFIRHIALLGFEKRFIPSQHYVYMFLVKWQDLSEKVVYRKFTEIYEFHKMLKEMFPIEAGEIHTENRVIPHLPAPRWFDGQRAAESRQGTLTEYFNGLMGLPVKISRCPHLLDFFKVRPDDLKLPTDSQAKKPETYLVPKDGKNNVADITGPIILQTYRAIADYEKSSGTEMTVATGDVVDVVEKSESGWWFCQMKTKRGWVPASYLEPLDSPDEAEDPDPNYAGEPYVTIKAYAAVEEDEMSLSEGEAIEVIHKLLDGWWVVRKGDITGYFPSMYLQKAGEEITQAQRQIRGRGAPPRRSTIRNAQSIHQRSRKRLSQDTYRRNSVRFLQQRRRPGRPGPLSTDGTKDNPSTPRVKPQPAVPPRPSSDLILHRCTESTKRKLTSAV
UniProt Q3TY86: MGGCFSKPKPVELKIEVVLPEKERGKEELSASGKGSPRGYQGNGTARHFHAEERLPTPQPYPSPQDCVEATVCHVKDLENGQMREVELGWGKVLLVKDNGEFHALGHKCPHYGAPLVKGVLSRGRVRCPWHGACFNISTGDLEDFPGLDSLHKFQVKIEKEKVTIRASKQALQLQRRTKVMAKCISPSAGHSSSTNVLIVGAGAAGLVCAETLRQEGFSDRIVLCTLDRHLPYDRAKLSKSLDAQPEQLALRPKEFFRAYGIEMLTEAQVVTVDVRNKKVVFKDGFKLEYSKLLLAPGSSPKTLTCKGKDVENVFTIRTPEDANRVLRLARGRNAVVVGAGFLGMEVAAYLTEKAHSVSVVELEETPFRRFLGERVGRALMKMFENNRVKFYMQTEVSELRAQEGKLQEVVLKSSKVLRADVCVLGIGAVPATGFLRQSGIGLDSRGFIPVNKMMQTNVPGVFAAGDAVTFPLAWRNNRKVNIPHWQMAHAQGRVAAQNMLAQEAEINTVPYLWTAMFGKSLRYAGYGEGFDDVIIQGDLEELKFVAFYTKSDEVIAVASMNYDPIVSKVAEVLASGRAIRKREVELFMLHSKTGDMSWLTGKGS
UniProt Q11011: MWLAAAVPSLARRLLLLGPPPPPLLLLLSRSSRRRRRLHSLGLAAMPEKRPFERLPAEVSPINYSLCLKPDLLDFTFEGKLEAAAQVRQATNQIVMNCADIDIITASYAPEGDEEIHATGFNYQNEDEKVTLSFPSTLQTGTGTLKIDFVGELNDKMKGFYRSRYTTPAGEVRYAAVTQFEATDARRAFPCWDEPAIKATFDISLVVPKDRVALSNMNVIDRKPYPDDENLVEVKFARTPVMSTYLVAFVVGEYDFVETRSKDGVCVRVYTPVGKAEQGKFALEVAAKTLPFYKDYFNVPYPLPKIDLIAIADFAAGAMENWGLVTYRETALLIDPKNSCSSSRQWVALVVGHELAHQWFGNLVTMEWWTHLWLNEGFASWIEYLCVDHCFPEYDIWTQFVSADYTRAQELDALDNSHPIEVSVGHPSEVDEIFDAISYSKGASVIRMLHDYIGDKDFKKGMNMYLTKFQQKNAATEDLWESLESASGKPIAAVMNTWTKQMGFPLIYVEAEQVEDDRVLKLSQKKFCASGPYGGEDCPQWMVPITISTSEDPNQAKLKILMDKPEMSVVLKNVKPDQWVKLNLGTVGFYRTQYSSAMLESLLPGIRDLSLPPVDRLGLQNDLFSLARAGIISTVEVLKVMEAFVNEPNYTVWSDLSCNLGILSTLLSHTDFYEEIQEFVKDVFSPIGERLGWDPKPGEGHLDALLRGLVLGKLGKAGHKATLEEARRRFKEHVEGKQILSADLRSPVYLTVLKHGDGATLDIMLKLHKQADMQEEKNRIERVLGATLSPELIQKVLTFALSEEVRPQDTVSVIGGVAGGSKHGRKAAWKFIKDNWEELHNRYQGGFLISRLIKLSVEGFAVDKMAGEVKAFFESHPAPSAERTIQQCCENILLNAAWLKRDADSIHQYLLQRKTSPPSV
UniProt Q149G0: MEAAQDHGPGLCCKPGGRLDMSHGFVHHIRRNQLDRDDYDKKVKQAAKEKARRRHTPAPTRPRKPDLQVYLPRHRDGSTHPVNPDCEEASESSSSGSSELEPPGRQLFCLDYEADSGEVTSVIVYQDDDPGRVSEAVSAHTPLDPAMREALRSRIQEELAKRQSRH
UniProt Q33DR3: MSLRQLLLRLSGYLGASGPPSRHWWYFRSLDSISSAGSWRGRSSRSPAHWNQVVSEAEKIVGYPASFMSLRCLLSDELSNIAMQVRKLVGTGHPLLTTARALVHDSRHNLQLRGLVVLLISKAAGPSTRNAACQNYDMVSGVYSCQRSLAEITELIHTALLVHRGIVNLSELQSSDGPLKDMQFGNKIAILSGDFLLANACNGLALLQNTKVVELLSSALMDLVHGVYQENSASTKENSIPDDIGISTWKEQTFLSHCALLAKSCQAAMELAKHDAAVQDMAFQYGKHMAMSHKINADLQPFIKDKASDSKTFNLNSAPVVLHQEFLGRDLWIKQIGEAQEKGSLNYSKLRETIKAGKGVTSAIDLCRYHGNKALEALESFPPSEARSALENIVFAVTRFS
UniProt Q3TKY6: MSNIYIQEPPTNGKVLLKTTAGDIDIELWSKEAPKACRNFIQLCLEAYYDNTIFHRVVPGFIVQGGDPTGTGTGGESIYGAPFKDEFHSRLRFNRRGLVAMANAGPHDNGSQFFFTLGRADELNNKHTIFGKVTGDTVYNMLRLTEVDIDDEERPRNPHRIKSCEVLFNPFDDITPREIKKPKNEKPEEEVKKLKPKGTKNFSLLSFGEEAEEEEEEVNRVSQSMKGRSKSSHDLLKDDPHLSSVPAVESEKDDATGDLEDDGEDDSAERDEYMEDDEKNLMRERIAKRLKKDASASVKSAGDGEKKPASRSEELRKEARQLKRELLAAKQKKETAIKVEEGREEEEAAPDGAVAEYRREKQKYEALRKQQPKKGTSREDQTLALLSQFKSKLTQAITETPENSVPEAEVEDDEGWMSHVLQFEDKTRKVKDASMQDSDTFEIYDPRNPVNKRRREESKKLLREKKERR

compound: CN[C@@H]1C[C@H]2O[C@@](C)([C@@H]1OC)n1c3ccccc3c3c4c(c5c6ccccc6n2c5c31)C(=O)NC4 [staurosporine]; assay: log2 fold change of tryptic peptide abundance, ligand vs vehicle (limited proteolysis) (log2 ratio); higher = more trypsin-susceptible (destabilized); details: ligand concentration: 20 uM; sample: mouse liver crude lysate; replicate design: treated separately

| Target | log2 fold change |
| --- | --- |
| UniProt Q0P678 (peptide sequence: VQYTEAEPYHNYR, peptide start residue: 386) | -0.144 |
| UniProt Q3TV70 (peptide sequence: VLGEKAG, peptide start residue: 134) | -0.2 |
| UniProt Q3TN34 (peptide sequence: VPNVVTAPTSK, peptide start residue: 458) | 0.387 |
| UniProt Q02956 (peptide sequence: DMCGLHQQHPLTLK, peptide start residue: 46) | 0.149 |
| UniProt Q3TXX3 (peptide sequence: SSMGATAPEAQR, peptide start residue: 389) | 0.192 |
| UniProt Q08091 (peptide sequence: GASQAGMTAPGTK, peptide start residue: 213) | 0.137 |
| UniProt Q3U0V1 (peptide sequence: MMLDDIVSR, peptide start residue: 207) | 0.133 |
| UniProt Q07231 (peptide sequence: IHTGEKPYQCNECGK, peptide start residue: 463) | 0.341 |
| UniProt Q2KN98 (peptide sequence: AQLGISEDHCEGEDR, peptide start residue: 211) | 0.386 |
| UniProt Q3TLH4 (peptide sequence: KEEQVVQVWSKK, peptide start residue: 1674) | -0.737 |
| UniProt Q3U1N2 (peptide sequence: AVLLAEAAR, peptide start residue: 1092) | 0.193 |
| UniProt Q03717 (peptide sequence: KEQMNEELK, peptide start residue: 141) | 0.0145 |
| UniProt Q0KL01 (peptide sequence: EHGAVPLNEATR, peptide start residue: 94) | -0.123 |
| UniProt Q3TWL2 (peptide sequence: MHQHVVK, peptide start residue: 104) | -0.506 |
| UniProt Q3THF9 (peptide sequence: ELMLHEIHHT, peptide start residue: 231) | -0.297 |
| UniProt Q04207 (peptide sequence: RTYETFK, peptide start residue: 304) | -0.584 |
| UniProt Q14AI6 (peptide sequence: LSPSQVAQMPLHLHLHR, peptide start residue: 293) | 0.149 |
| UniProt Q3THJ3 (peptide sequence: GDFLIVDPIEEGEKVK, peptide start residue: 66) | 0.327 |

| Target | log2 fold change |
| --- | --- |
| UniProt Q3U155 (peptide sequence: AEKDAEQKLEEQK, peptide start residue: 65) | 0.321 |
| UniProt Q3SXD3 (peptide sequence: LQDFYDSTAGK, peptide start residue: 159) | -0.201 |
| UniProt Q3TBL6 (peptide sequence: NLALQAQKK, peptide start residue: 26) | -0.296 |
| UniProt Q11136 (peptide sequence: ASVPFSGQK, peptide start residue: 485) | 0.0369 |
| UniProt Q0VAV2 (peptide sequence: APLLHQEK, peptide start residue: 1388) | -0.733 |
| UniProt Q09014 (peptide sequence: AGEEITQAQR, peptide start residue: 283) | 0.279 |
| UniProt Q3TY86 (peptide sequence: IEVVLPEKER, peptide start residue: 15) | 0.333 |
| UniProt Q3U2E2 (peptide sequence: NVDFPIASLSR, peptide start residue: 123) | 0.132 |
| UniProt Q03142 (peptide sequence: KLHAVPAGNTVK, peptide start residue: 155) | -0.585 |
| UniProt Q2PZL6 (peptide sequence: AVDPDEGVNGR, peptide start residue: 917) | 0.222 |
| UniProt Q3U1Y4 (peptide sequence: TSGCQEEVGTPR, peptide start residue: 1041) | 0.0711 |
| UniProt Q3TVI8 (peptide sequence: AVWKEHR, peptide start residue: 134) | -0.0485 |
| UniProt Q11011 (peptide sequence: LGWDPKPGEGHLDALLR, peptide start residue: 691) | -0.254 |
| UniProt Q149G0 (peptide sequence: VSEAVSAHTPLDPAMR, peptide start residue: 133) | 0.165 |
| UniProt Q14CH1 (peptide sequence: GPEPPAFQR, peptide start residue: 9) | 0.136 |
| UniProt Q33DR3 (peptide sequence: INADLQPFIK, peptide start residue: 295) | -0.271 |
| UniProt Q3U0K8 (peptide sequence: RPADPGPARPMK, peptide start residue: 5) | -0.0305 |
| UniProt Q3TKY6 (peptide sequence: NEKPEEEVKK, peptide start residue: 184) | -0.464 |

Another view of some results above.
Target	log2 fold change
UniProt Q3U1Y4 (peptide sequence: TSGCQEEVGTPR, peptide start residue: 1041)	0.0711
UniProt Q3TVI8 (peptide sequence: AVWKEHR, peptide start residue: 134)	-0.0485
